The target of this assay is hADSS-myc-flag (pCMV6 hADSS-myc-flag, Origene RC204256) (human) (UniProt P30520). Kind of assay: co-immunoprecipitation from transfected HEK 293 cell lysate, IP with KCTD13 antibody, immunoblot with myc antibody. In general terms: In western blotting, separated proteins are transferred to a membrane and probed.

By UniProt entry, the sequences of proteins in these tests, tags left out. Where a name states a change or a piece, a line headed by the entry shows the natural chain unless it says otherwise.
UniProt P30520: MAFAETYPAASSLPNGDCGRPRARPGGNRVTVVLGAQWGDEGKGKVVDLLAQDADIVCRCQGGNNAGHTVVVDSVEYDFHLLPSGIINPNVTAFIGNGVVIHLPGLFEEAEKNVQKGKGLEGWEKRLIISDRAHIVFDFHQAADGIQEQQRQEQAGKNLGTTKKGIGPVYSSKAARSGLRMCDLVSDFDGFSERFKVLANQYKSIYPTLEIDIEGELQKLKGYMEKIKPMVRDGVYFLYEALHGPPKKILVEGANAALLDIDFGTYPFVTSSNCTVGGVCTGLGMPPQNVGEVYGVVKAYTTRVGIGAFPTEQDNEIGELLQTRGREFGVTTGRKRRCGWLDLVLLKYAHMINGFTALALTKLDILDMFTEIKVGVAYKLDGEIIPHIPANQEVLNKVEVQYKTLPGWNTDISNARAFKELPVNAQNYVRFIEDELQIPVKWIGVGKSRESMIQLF

Among the data in US20200009149A1 are binding values, retold here.

These are yes or no findings as the source states them, for the method shown. Binding seen in cells or lysates may run through a third protein. Some results given as binding are weak or reduced against the parent protein; the word gives no strength.

B1: human KCTD13 (expressed from plasmid V82 hKCTD13_IRESPuro in HEK cells) (protein, UniProt Q8WZ19 1-329, looked up)
chain: MSAEASGPAAAAAPSLEAPKPSGLEPGPAAYGLKPLTPNSKYVKLNVGGSLHYTTLRTLTGQDTMLKAMFSGRVEVLTDAGGWVLIDRSGRHFGTILNYLRDGSVPLPESTRELGELLGEARYYLVQGLIEDCQLALQQKRETLSPLCLIPMVTSPREEQQLLASTSKPVVKLLHNRSNNKYSYTSTSDDNLLKNIELFDKLALRFHGRLLFLKDVLGDEICCWSFYGQGRKIAEVCCTSIVYATEKKQTKVEFPEARIFEETLNILIYETPRGPDPALLEATGGAAGAGGAGRGEDEENREHRVRRIHVRRHITHDERPHGQQIVFKD
As for B1, the binding result is listed as “binds”.
